Data: paper PMC9068211
No constants are given. Whether binding was seen depends on the method and setting. In cells and extracts the contact can be indirect. Binding can be weak; no strength is given. For part of these data: Tags and fused reporters may be left off the sequences shown. Each block holds one molecule with its values, some of them ahead of it.

Columns and labels:
FLAG-hRai14 (human) = biological target: T1, FLAG-hRai14 (human) (UniProt Q9P0K7); experiment: co-IP; FLAG-Rai14 with GFP-Tara fragments co-expressed in HEK293 cells; IP with anti-FLAG antibody
T1 sequence: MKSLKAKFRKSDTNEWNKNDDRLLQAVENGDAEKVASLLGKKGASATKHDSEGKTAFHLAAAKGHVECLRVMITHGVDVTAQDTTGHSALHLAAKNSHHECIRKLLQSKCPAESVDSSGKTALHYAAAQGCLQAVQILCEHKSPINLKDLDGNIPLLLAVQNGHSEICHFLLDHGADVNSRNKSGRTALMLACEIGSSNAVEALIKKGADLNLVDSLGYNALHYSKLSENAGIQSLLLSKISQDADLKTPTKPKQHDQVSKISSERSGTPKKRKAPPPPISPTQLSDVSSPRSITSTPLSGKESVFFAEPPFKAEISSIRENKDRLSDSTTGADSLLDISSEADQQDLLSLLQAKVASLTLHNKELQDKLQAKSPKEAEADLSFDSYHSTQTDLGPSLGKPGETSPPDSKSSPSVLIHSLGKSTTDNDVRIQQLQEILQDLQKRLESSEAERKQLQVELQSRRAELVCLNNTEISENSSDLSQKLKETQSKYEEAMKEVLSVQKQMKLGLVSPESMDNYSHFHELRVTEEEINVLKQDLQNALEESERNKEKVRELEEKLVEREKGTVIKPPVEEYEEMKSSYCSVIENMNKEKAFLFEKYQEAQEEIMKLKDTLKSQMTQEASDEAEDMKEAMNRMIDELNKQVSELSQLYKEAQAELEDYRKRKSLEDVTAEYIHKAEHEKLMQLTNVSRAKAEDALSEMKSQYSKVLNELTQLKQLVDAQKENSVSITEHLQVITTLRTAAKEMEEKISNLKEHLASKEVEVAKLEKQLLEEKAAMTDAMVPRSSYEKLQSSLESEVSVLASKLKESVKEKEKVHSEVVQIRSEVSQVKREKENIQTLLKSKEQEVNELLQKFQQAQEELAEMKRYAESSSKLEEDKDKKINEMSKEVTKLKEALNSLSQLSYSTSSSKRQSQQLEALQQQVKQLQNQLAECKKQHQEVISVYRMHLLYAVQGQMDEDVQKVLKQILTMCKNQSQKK

[1] = biological target: T2, Rai14, endogenous in mouse brain (mouse (endogenous in P14 brain)) (UniProt Q9EP71); experiment: co-IP; endogenous Rai14 and Tara from P14 mouse brain lysates; modified RIPA lysis buffer; protein-A agarose, 4 °C; normal rabbit IgG as negative control
T2 sequence: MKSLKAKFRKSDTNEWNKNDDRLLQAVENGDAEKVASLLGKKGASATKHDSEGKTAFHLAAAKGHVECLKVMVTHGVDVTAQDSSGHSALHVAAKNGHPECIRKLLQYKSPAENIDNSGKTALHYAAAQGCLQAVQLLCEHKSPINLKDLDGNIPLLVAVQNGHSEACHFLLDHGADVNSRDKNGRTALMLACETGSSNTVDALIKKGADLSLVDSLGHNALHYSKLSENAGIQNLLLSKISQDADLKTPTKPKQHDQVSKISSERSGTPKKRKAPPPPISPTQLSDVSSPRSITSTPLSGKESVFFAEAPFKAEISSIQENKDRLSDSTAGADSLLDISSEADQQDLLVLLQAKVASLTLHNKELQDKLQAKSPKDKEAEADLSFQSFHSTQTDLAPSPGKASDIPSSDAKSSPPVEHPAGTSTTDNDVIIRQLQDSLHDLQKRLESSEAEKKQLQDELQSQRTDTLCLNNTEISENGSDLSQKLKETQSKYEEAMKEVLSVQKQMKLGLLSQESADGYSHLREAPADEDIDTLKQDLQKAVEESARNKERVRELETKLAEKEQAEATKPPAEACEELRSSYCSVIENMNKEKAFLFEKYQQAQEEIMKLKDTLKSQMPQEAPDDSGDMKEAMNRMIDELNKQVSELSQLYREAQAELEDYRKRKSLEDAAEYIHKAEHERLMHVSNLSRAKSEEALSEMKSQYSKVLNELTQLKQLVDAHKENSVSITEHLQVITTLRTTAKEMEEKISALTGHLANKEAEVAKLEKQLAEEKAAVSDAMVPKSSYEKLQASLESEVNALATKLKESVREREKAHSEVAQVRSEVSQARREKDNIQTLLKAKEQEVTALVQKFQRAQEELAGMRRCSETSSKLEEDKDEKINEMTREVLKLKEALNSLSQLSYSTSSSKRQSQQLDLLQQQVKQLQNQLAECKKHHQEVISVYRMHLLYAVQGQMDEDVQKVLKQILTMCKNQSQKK

[2] = biological target: EGFP-hTara^241-330 (human); experiment: co-IP; endogenous Rai14 with GFP-Tara deletion mutants in transfected HEK293 cells; ELB lysis buffer; control GFP-empty vector

binding (FLAG-hRai14 (human)): binds
Molecule: EGFP-hTara^161-499 (human) (domain or fragment)

binding [1]: binds
Molecule: Tara, endogenous in mouse brain

binding [2]: binds
B1: Rai14, endogenous in HEK293 cells (protein, UniProt Q9P0K7 1-980)
chain: MKSLKAKFRKSDTNEWNKNDDRLLQAVENGDAEKVASLLGKKGASATKHDSEGKTAFHLAAAKGHVECLRVMITHGVDVTAQDTTGHSALHLAAKNSHHECIRKLLQSKCPAESVDSSGKTALHYAAAQGCLQAVQILCEHKSPINLKDLDGNIPLLLAVQNGHSEICHFLLDHGADVNSRNKSGRTALMLACEIGSSNAVEALIKKGADLNLVDSLGYNALHYSKLSENAGIQSLLLSKISQDADLKTPTKPKQHDQVSKISSERSGTPKKRKAPPPPISPTQLSDVSSPRSITSTPLSGKESVFFAEPPFKAEISSIRENKDRLSDSTTGADSLLDISSEADQQDLLSLLQAKVASLTLHNKELQDKLQAKSPKEAEADLSFDSYHSTQTDLGPSLGKPGETSPPDSKSSPSVLIHSLGKSTTDNDVRIQQLQEILQDLQKRLESSEAERKQLQVELQSRRAELVCLNNTEISENSSDLSQKLKETQSKYEEAMKEVLSVQKQMKLGLVSPESMDNYSHFHELRVTEEEINVLKQDLQNALEESERNKEKVRELEEKLVEREKGTVIKPPVEEYEEMKSSYCSVIENMNKEKAFLFEKYQEAQEEIMKLKDTLKSQMTQEASDEAEDMKEAMNRMIDELNKQVSELSQLYKEAQAELEDYRKRKSLEDVTAEYIHKAEHEKLMQLTNVSRAKAEDALSEMKSQYSKVLNELTQLKQLVDAQKENSVSITEHLQVITTLRTAAKEMEEKISNLKEHLASKEVEVAKLEKQLLEEKAAMTDAMVPRSSYEKLQSSLESEVSVLASKLKESVKEKEKVHSEVVQIRSEVSQVKREKENIQTLLKSKEQEVNELLQKFQQAQEELAEMKRYAESSSKLEEDKDKKINEMSKEVTKLKEALNSLSQLSYSTSSSKRQSQQLEALQQQVKQLQNQLAECKKQHQEVISVYRMHLLYAVQGQMDEDVQKVLKQILTMCKNQSQKK
